PubChem BioAssay AID1259308 – NCATS – 2017

- Test: 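Genes whose loss raises luciferase production in HEK293 cells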 (primary screen)
- Cell system: human HEK293 embryonic kidney cells stably expressing firefly luciferase (HEK-CMV-Luc2-Hygro)
- Knock-down reagent: single siRNA against human genes, 0.8 pmol siRNA per well
- Duration: 72 h
- Read-out: 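Reporter luminescence and viable-cell signal on separate replicate plates, given as percent of non-targeting control and median/MAD z-scores, plus per-cell luciferase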
- Reading the numbers: total luciferase, z-score and total luciferase, % of control: higher = more reporter protein produced; luciferase per cell, z-score: higher = more reporter output per viable cell; viable cells, % of control: higher = more viable cells
- Call rule: 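An siRNA counts as active if its total luciferase robust z-score exceeds 3; genes with two or more such siRNAs out of three were retested with fresh siRNAs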
- Calls: active = raised luciferase; inactive = no rise
Shown is an unselected part of about 59,000 reagents tested. In the full data, about 1,510 (2.6%) got an active call. 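Calls use total luciferase alone and ignore viability, so some active siRNAs may act by altering cell number.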 Reagents against one gene are numbered here.

target | siRNA no. | total luciferase, z-score | total luciferase, % of control | luciferase per cell, z-score | viable cells, % of control | activity call
NCBP2 | 1 | 0.0122 | 82.1 | -0.0219 | 92.3 | inactive
NCBP2 | 2 | -2.38 | 34.5 | -2 | 65.3 | inactive
NCBP2 | 3 | 1.83 | 118 | 0.641 | 112 | inactive
ARIH2OS | 1 | -0.137 | 79.2 | -0.467 | 100 | inactive
ARIH2OS | 2 | -0.301 | 75.9 | -0.5 | 96.7 | inactive
ARIH2OS | 3 | -0.113 | 79.6 | 0.0448 | 88 | inactive
RPL26P30 | 1 | 0.57 | 93.2 | 0.473 | 92 | inactive
RPL26P30 | 2 | -0.841 | 65.2 | -1.09 | 97 | inactive
RPL26P30 | 3 | -2.38 | 34.6 | -3.43 | 95.4 | inactive
RHOH | 1 | 0.54 | 92.6 | -0.0371 | 105 | inactive
RHOH | 2 | 1.51 | 112 | 0.722 | 103 | inactive
RHOH | 3 | 0.231 | 86.5 | 1.22 | 70.1 | inactive
IGHMBP2 | 1 | -1.17 | 58.6 | -1.53 | 98 | inactive
IGHMBP2 | 2 | -1.69 | 48.3 | -1.11 | 72.3 | inactive
IGHMBP2 | 3 | 0.483 | 91.5 | -0.392 | 113 | inactive
DUSP29 | 1 | -0.257 | 76.8 | -0.302 | 92.9 | inactive
DUSP29 | 2 | -1.28 | 56.4 | -1.81 | 101 | inactive
DUSP29 | 3 | -0.429 | 73.4 | -0.697 | 98.5 | inactive

Next part; the last 2 above are carried over.
target | siRNA no. | total luciferase, z-score | total luciferase, % of control | luciferase per cell, z-score | viable cells, % of control | activity call
DUSP29 | 2 | -1.28 | 56.4 | -1.81 | 101 | inactive
DUSP29 | 3 | -0.429 | 73.4 | -0.697 | 98.5 | inactive
PDE6C | 1 | 0.974 | 101 | 0.545 | 98 | inactive
PDE6C | 2 | 0.0332 | 82.5 | 0.385 | 83.3 | inactive
PDE6C | 3 | -1.08 | 60.4 | -0.693 | 81.1 | inactive
PWP2 | 1 | 0.394 | 89.7 | 1.25 | 72.1 | inactive
PWP2 | 2 | 0.72 | 96.2 | 0.8 | 87.1 | inactive
PWP2 | 3 | -1.27 | 56.7 | -1.52 | 94.5 | inactive
GPR15 | 1 | 1.01 | 102 | 2.05 | 66.5 | inactive
GPR15 | 2 | 0.252 | 86.9 | 0.192 | 92.3 | inactive
GPR15 | 3 | 0.154 | 85 | -0.568 | 110 | inactive
HTATSF1 | 1 | 0.104 | 84 | -0.378 | 104 | inactive
HTATSF1 | 2 | 0.787 | 97.5 | 0.0986 | 106 | inactive
HTATSF1 | 3 | 0.564 | 93.1 | 0.801 | 84.2 | inactive
LALBA | 1 | -1.47 | 52.6 | -0.764 | 71.8 | inactive
LALBA | 2 | 0.228 | 86.4 | -0.173 | 101 | inactive
LALBA | 3 | 0.0142 | 82.2 | -0.163 | 95.8 | inactive
FBXL22 | 1 | -1.78 | 46.5 | -0.918 | 66.2 | inactive
FBXL22 | 2 | -0.163 | 78.6 | -0.299 | 95.1 | inactive
FBXL22 | 3 | -2.24 | 37.3 | -2.38 | 78 | inactive
DNMT3L | 1 | -0.204 | 77.8 | -0.272 | 93.4 | inactive
DNMT3L | 2 | 0.221 | 86.3 | -0.755 | 118 | inactive
DNMT3L | 3 | -0.613 | 69.7 | -0.644 | 92.3 | inactive
